From US20230338454A1, “FORSYTHIA SUSPENSA COMPONENT AND OPTIONAL PANAX GINSENG COMPONENT AND THE APPLICATION” (priority 2020, published 2023)

Tested on: HCMV AD169 strain
Assay: Inhibitory effect on HCMV in vitro (MEC, therapeutic index)
Format: cell-based, human cytomegalovirus
Procedure: Human embryonic lung fibroblast cell strain (purchased from Sino Best Biological Technology Co., Ltd.). The cells were cultured and subcultured according to the conventional method.
HCMV AD169 strain was purchased from American Type Culture Collection (ATCC).
Cells were inoculated in a 96-well plate, allowed to grow into monolayers, and inoculated with a virus challenge of 100 times TCD50. Starting from TD0, each drug was diluted stepwise according to 10-fold gradient to prepare 5 concentrations, with 4 wells set for each concentration. In addition, 4 wells of normal cell control and 4 wells of virus control were set.

Row | SMILES | Therapeutic index (TD0/MEC)
1 | COc1ccc(C2OCC3C(c4ccc(OC5OC(C(=O)O)C(O)C(O)C5O)c(O)c4)OCC23)cc1OC [9-Hydroxy-phillygenin glucuronide, 9-hydroxy phillygenin-8-O-β-D-glucuronide] | 100
2 | COc1cc(C2OCC3C(c4ccc5c(c4)OCO5)OCC23)ccc1OC1OC(C(=O)O)C(O)C(O)C1O [33, 34-methylenedioxy phillygenin-8-O-β-D-glucuronide] | 100
3 | COc1cc(C2OCC3C(c4ccc(OC5OC(C(=O)O)C(O)C(O)C5O)c(OC)c4)OCC23)ccc1O [33-Hydroxy-phillygenin glucuronide, 33-hydroxy phillygenin-8-O-β-D-glucuronide] | 100
4 | Nc1nc(O)c2ncn(COC(CO)CO)c2n1 [Ganciclovir (GCV), Ganciclovir, reference compound] | 1
